According to the supplement of paper PMC10849652:
This is one part of the list. Residues, ends and D or L forms follow the SMILES beside them. *: point of attachment. Cbz = O=C(OCc1ccccc1)*

The chains behind the UniProt entries cited, without tags or fusion partners. Where a name states a change or a piece, a line headed by the entry shows the natural chain unless it says otherwise.
UniProt Q8NDD1: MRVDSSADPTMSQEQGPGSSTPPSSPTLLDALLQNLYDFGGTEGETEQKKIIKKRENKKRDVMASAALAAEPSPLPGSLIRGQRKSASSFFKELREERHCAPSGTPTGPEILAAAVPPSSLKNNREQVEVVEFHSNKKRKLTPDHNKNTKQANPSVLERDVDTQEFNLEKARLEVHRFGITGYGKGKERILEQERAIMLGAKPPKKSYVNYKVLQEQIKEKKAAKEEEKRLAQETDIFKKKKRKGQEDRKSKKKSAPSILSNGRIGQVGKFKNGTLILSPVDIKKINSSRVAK
UniProt Q9BSJ5: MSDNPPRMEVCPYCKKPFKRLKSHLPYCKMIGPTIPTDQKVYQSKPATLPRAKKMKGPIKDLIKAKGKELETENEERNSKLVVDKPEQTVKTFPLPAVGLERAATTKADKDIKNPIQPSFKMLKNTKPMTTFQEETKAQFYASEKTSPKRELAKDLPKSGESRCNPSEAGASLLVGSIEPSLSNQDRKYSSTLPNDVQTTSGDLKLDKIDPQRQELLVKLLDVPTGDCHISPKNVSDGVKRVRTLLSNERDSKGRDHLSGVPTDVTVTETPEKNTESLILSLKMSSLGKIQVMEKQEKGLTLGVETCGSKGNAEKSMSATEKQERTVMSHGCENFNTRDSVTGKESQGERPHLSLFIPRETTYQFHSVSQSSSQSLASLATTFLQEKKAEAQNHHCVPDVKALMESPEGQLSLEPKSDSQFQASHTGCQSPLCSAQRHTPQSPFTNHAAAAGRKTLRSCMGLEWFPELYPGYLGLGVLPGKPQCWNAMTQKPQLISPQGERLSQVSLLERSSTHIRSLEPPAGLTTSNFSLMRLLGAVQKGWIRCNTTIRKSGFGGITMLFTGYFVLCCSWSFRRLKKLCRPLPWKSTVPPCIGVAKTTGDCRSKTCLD
UniProt Q01518, whole entry, looked up: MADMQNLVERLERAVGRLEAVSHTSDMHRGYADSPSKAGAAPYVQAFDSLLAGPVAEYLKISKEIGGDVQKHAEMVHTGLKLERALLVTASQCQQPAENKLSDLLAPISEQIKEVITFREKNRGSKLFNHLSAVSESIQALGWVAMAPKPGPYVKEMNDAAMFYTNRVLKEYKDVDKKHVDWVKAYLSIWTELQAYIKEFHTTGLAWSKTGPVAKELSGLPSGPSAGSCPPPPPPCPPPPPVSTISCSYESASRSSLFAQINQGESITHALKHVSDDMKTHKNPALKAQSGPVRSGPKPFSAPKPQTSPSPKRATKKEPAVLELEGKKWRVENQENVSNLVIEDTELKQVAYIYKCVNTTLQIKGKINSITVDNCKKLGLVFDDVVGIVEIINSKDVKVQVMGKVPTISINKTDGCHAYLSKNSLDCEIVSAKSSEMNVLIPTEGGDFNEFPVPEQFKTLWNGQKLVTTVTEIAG
UniProt Q9UFG5: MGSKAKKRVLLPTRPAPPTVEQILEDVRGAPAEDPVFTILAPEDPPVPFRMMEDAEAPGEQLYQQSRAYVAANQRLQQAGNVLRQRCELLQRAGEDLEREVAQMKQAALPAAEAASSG
UniProt Q8IXQ3: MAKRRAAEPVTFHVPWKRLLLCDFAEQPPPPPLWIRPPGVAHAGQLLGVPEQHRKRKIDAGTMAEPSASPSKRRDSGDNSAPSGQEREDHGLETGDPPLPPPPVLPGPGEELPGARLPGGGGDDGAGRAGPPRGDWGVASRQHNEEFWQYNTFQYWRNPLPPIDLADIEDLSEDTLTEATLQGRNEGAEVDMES
UniProt P27824: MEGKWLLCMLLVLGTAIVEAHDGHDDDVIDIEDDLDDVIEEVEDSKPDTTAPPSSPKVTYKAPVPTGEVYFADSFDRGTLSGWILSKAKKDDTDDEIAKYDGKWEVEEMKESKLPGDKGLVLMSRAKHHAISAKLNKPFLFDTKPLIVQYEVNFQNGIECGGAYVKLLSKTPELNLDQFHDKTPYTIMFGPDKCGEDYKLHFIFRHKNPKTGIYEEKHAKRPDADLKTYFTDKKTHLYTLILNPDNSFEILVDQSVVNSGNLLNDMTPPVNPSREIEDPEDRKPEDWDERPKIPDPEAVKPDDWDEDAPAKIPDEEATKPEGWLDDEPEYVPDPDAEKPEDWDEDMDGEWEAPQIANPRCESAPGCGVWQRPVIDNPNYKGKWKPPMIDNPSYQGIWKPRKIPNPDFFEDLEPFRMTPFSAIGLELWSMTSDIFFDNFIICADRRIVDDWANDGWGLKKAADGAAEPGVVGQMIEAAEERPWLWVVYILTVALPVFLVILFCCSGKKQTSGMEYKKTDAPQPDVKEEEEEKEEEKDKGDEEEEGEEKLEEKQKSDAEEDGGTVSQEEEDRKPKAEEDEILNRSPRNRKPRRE
UniProt Q8IYL3: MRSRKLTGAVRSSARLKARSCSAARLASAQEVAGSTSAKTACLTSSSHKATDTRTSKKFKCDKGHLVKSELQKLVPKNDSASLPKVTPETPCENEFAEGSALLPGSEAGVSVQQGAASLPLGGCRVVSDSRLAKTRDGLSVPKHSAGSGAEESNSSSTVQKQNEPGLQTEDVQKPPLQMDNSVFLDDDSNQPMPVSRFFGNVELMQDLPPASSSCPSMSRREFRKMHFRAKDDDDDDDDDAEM
UniProt Q9Y6W3: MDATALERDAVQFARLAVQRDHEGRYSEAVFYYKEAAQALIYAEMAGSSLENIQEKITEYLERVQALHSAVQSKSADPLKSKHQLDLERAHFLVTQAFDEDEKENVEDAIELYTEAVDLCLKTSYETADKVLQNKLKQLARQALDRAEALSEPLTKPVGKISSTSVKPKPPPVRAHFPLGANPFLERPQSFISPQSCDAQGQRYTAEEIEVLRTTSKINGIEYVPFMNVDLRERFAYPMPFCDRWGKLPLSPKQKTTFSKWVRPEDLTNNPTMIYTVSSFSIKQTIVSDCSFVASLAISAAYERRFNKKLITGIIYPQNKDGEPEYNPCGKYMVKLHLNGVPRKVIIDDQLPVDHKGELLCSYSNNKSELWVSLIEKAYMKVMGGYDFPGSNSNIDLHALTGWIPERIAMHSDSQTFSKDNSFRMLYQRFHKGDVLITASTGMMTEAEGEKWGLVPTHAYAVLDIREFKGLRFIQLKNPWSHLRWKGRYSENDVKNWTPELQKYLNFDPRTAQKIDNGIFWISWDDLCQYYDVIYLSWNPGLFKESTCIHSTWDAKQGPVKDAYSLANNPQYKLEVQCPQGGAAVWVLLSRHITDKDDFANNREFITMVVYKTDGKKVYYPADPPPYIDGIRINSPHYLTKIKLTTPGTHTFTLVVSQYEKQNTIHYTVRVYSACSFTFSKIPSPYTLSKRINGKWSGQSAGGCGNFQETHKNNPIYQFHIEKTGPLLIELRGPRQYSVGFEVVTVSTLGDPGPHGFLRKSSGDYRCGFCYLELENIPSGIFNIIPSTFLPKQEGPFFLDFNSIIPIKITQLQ
UniProt P17655: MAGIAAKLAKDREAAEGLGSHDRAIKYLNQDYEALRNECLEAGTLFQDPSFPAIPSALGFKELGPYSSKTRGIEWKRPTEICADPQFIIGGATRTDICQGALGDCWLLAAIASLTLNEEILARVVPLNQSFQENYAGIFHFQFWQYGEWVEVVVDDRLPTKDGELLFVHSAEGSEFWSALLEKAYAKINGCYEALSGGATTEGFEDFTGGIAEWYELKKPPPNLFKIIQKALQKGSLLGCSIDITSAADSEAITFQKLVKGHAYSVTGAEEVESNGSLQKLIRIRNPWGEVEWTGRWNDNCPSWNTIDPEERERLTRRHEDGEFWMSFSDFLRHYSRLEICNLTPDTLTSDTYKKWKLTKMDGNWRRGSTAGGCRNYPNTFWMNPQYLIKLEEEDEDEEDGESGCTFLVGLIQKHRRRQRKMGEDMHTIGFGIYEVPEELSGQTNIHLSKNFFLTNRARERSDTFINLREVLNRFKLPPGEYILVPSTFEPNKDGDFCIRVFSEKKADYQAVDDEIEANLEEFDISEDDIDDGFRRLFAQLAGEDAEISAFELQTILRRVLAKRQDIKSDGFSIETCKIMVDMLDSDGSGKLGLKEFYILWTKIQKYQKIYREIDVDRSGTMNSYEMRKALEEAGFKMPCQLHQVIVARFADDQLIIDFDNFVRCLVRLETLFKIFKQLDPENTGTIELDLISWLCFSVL
UniProt P01024, whole entry, looked up: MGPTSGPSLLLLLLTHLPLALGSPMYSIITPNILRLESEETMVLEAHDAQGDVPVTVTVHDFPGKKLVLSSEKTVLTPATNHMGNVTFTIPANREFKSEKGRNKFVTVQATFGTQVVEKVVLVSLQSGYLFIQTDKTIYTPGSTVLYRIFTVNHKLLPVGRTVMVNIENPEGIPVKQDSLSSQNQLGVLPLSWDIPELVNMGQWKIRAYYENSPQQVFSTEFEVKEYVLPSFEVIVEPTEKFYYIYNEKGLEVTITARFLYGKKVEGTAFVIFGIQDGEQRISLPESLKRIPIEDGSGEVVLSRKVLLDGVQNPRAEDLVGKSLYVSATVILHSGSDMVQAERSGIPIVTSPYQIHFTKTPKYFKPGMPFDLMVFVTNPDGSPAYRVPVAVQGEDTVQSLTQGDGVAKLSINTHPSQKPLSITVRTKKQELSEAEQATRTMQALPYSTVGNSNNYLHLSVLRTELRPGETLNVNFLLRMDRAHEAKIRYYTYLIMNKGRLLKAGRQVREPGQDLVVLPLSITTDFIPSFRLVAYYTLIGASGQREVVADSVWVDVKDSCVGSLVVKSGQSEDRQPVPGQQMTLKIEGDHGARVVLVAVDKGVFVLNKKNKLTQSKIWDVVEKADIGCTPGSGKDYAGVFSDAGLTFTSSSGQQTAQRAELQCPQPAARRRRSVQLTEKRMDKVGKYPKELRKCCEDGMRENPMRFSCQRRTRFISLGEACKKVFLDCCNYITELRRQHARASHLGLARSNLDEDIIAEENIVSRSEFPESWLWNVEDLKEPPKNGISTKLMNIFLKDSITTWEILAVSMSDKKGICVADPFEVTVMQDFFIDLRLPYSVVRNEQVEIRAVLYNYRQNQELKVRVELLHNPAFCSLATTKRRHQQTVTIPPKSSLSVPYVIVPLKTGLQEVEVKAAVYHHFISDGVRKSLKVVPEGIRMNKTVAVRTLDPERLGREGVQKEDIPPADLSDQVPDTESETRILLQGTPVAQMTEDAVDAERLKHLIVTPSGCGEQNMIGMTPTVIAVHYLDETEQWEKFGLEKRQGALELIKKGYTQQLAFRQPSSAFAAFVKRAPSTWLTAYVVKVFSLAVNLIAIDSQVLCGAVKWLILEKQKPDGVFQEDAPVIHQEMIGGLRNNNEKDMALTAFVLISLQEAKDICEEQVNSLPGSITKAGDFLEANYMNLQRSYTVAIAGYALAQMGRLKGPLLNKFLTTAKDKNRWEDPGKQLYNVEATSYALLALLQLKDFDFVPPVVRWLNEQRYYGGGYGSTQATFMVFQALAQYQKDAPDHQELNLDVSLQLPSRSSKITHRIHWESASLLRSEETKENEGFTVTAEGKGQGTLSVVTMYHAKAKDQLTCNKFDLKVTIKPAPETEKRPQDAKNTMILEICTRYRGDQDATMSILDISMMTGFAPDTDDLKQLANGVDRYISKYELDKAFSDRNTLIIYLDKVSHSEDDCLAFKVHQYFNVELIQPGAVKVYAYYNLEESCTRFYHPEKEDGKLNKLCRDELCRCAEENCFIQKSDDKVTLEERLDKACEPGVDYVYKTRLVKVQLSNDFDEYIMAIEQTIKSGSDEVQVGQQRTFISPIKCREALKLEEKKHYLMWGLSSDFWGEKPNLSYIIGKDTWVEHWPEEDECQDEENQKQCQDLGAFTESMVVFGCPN
UniProt A6NDU8: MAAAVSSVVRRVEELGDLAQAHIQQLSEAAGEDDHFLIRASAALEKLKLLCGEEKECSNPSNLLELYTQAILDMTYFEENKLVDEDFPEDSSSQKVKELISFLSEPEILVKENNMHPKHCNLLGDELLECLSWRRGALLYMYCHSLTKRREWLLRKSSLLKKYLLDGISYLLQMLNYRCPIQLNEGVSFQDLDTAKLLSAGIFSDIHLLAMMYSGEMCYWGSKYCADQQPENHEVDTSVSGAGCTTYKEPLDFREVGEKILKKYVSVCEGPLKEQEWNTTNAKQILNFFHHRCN
UniProt Q6ZSJ8: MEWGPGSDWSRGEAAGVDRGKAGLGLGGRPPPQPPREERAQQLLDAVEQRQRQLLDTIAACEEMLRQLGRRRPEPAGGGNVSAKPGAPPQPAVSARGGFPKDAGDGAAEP
UniProt Q6P1S2: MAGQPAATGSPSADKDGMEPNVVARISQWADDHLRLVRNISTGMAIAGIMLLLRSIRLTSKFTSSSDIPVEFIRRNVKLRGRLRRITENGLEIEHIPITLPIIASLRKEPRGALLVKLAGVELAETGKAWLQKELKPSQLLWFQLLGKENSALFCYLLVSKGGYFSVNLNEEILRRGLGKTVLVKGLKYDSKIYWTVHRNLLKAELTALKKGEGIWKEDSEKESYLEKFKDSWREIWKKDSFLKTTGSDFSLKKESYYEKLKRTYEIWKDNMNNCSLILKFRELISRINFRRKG

Assays:
Test in all cases: log2 fold change, soluble protein after heating vs DMSO (PISA); higher = thermal stabilisation; K562 cells, 10 uM, 30 min; active = over 0.2 and 3.5 SD of the protein, either way, in both replicates (recomputed)
IRAK-1-4 Inhibitor I = compound: C1COCCN1CCN2C3=CC=CC=C3N=C2NC(=O)C4=CC(=CC=C4)[N+](=O)[O-] [IRAK-1-4 Inhibitor I]
Summary of the method: (§1)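 K562 cells at 2×10^6 cells/mL were treated with 10 μM compound for 30 min. Aliquots were heated for 3 min across 48°C-58°C, pooled, and extracted in PBS with 0.5% NP-40 at 4°C; soluble protein was the supernatant after 21,000xg for 90 min. Soluble protein was quantified by TMTpro 16plex LC-MS/MS with channel sums equalised, and reported as log2 fold change in thermal stability against DMSO controls, with values from duplicates.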

ibrutinib = compound: C=CC(=O)N1CCC[C@@H](n2nc(-c3ccc(Oc4ccccc4)cc3)c3c(N)ncnc32)C1 [ibrutinib]
Summary of the method: as §1

[1] = compound: CC(=O)c1cnc2ccc(-c3cc(Cl)c(O)c(Cl)c3)nc2c1N[C@H]1CC[C@H](CN(C)C)CC1
Summary of the method: as §1

ralimetinib = compound: CC(C)(C)Cn1c(N)nc2ccc(-c3[nH]c(C(C)(C)C)nc3-c3ccc(F)cc3)nc21 [ralimetinib]
Summary of the method: as §1

[2] = compound: CC(C)(O)CC(=O)NCCn1ccc2ncnc(Nc3ccc(Oc4cccc(C(F)(F)F)c4)c(Cl)c3)c21
Summary of the method: as §1

[3] = compound: CC(C)C1=C2N=C(C=C(N2N=C1)NCC3=CC=CC=C3)NCCCCCCN
Summary of the method: as §1

[4] = compound: CC(C)C[C@@H](C=O)NC(=O)[C@H](CC(C)C)NC(=O)[C@H](CC(C)C)NC(=O)OCc1ccccc1
Summary of the method: as §1

pinometostat = compound: CC(C)N(C[C@H]1O[C@@H](n2cnc3c(N)ncnc32)[C@H](O)[C@@H]1O)[C@H]1C[C@@H](CCc2nc3cc(C(C)(C)C)ccc3[nH]2)C1 [pinometostat]
Summary of the method: as §1

[5] = compound: CC1=C(C(CC(=O)N1)C2=CC=C(C=C2)C(F)(F)F)C(=O)NC3=C(C=C4C(=C3)C=NN4)F
Summary of the method: as §1

[6] = compound: CC1=C(C2=C(C=C1)C(=O)C3=CC=CC=C3N2CCCN)C
Summary of the method: as §1

[7] = compound: CC1=C(C=C(C=C1)NC(=O)C2=CC(=CC=C2)C(C)(C)C#N)NC3=CC4=C(C=C3)N=CN(C4=O)C
Summary of the method: as §1

[8] = compound: CC1=C(C=C(C=C1)NC(=O)C2=CC(=CC=C2)N(C)C)NC(=O)C3=CC=C(C=C3)O
Summary of the method: as §1

[9] = compound: CC1=CC=C(C=C1)SC2=C3C=C(SC3=CN=C2)C(=O)N
Summary of the method: as §1

[10] = compound: CC1=NC(=CC=C1)C2=C(N=C(N2)C(C)(C)C)C3=CC4=NC=CN=C4C=C3
Summary of the method: as §1

Nexturastat A = compound: CCCCN(Cc1ccc(C(=O)NO)cc1)C(=O)Nc1ccccc1 [Nexturastat A]
Summary of the method: as §1

vemurafenib = compound: CCCS(=O)(=O)Nc1ccc(F)c(C(=O)c2c[nH]c3ncc(-c4ccc(Cl)cc4)cc23)c1F [vemurafenib]
Summary of the method: as §1

[11] = compound: CCCS(=O)(=O)Nc1ccc(F)c(C(=O)c2c[nH]c3ncc(Cl)cc23)c1F
Summary of the method: as §1

[12] = compound: CCCc1cc(C)[nH]c(=O)c1CNC(=O)c1cc(-c2ccnc(N3CCN(C)CC3)c2)cc2c1cnn2C(C)C
Summary of the method: as §1

givinostat = compound: CCN(CC)Cc1ccc2cc(COC(=O)Nc3ccc(C(=O)NO)cc3)ccc2c1 [givinostat]
Summary of the method: as §1

barasertib = compound: CCN(CCCOc1ccc2c(Nc3cc(CC(=O)Nc4cccc(F)c4)[nH]n3)ncnc2c1)CCOP(=O)(O)O [barasertib]
Summary of the method: as §1

Measured: log2 fold change

BTF3L4 (UniProt Q96K17)
inactive: IRAK-1-4 Inhibitor I 0.087 | ibrutinib 0.007 | [1] -0.036 | ralimetinib -0.057 | [2] 0.01 | [3] 0.077 | [4] -0.015 | pinometostat -0.04 | [5] 0.004 | [6] -0.031 | [7] -0.009 | [8] -0.001 | [9] 0.025 | [10] 0.095 | Nexturastat A -0.079 | vemurafenib 0.009 | [11] 0.024 | [12] 0.016 | givinostat 0.003 | barasertib -0.008

C1orf131 isoform 5 (UniProt Q8NDD1)
inactive: IRAK-1-4 Inhibitor I -0.132 | ibrutinib 0.03 | [1] 0.099 | ralimetinib 0.077 | [2] 0.085 | [3] 0.126 | [4] 0.109 | pinometostat 0.238 | [5] 0.064 | [6] -0.024 | [7] -0.058 | [8] 0.024 | [9] -0.115 | [10] -0.113 | Nexturastat A 0.163 | vemurafenib -0.123 | [11] -0.084 | [12] 0.1 | givinostat 0.026 | barasertib -0.028

CALM2 (UniProt P0DP24)
inactive: IRAK-1-4 Inhibitor I 0.064 | ibrutinib 0.038 | [1] 0.036 | ralimetinib 0.146 | [2] -0.021 | [3] 0.083 | [4] -0.008 | pinometostat -0.073 | [5] 0.002 | [6] 0.002 | [7] 0.015 | [8] -0.003 | [9] 0.015 | [10] 0.046 | Nexturastat A -0.01 | vemurafenib -0.001 | [11] -0.069 | [12] 0.026 | givinostat -0.02 | barasertib -0.014

C17orf80 (UniProt Q9BSJ5)
inactive: IRAK-1-4 Inhibitor I 0.038 | ibrutinib -0.009 | [1] 0.008 | ralimetinib -0.029 | [2] 0.069 | [3] 0.061 | [4] 0.092 | pinometostat 0.025 | [5] 0.079 | [6] -0.033 | [7] 0.017 | [8] -0.008 | [9] 0.015 | [10] -0.013 | Nexturastat A 0.122 | vemurafenib -0.028 | [11] -0.03 | [12] -0.06 | givinostat -0.01 | barasertib 0.017

CAP1 (UniProt Q01518)
inactive: IRAK-1-4 Inhibitor I 0.021 | ibrutinib 0.004 | [1] 0.044 | ralimetinib -0.031 | [2] -0.048 | [3] 0.005 | [4] -0.009 | pinometostat -0.03 | [5] 0 | [6] 0.067 | [7] 0.029 | [8] 0.005 | [9] 0.038 | [10] -0.004 | Nexturastat A -0.03 | vemurafenib -0.017 | [11] 0.005 | [12] -0.049 | givinostat -0.033 | barasertib -0.008

C19orf25 (UniProt Q9UFG5)
inactive: IRAK-1-4 Inhibitor I -0.005 | ibrutinib 0.017 | [1] -0.136 | ralimetinib -0.143 | [2] -0.134 | [3] 0.071 | [4] -0.069 | pinometostat -0.112 | [5] 0.036 | [6] 0.353 | [7] -0.101 | [8] -0.126 | [9] 0.012 | [10] -0.074 | Nexturastat A 0.064 | vemurafenib 0 | [11] -0.014 | [12] 0.025 | givinostat -0.033 | barasertib -0.016

C9orf40 (UniProt Q8IXQ3)
inactive: IRAK-1-4 Inhibitor I 0.044 | ibrutinib 0.023 | [1] -0.018 | ralimetinib -0.015 | [2] 0.097 | [3] 0.013 | [4] 0.085 | pinometostat -0.057 | [5] 0.048 | [6] 0.149 | [7] 0.016 | [8] 0.019 | [9] 0.01 | [10] 0.058 | Nexturastat A 0.04 | vemurafenib 0.084 | [11] -0.01 | [12] 0 | givinostat 0.008 | barasertib 0.045

CANX isoform 2 (UniProt P27824)
inactive: IRAK-1-4 Inhibitor I -0.034 | ibrutinib -0.001 | [1] 0.023 | ralimetinib 0.018 | [2] 0.057 | [3] -0.011 | [4] 0.029 | pinometostat 0.026 | [5] 0.023 | [6] -0.052 | [7] 0.078 | [8] -0.006 | [9] -0.048 | [10] -0.057 | Nexturastat A 0.075 | vemurafenib -0.026 | [11] -0.04 | [12] 0.041 | givinostat -0.019 | barasertib -0.007

C1orf174 (UniProt Q8IYL3)
inactive: IRAK-1-4 Inhibitor I 0.043 | ibrutinib 0.035 | [1] -0.312 | ralimetinib 0.06 | [2] 0.05 | [3] 0.106 | [4] 0.029 | pinometostat -0.002 | [5] -0.06 | [6] 0.102 | [7] -0.034 | [8] 0.037 | [9] -0.047 | [10] 0.051 | Nexturastat A 0.067 | vemurafenib 0.01 | [11] -0.03 | [12] -0.073 | givinostat -0.057 | barasertib 0.008

CAPN7 (UniProt Q9Y6W3)
inactive: IRAK-1-4 Inhibitor I 0.005 | ibrutinib -0.033 | [1] -0.032 | ralimetinib 0.054 | [2] -0.129 | [3] -0.136 | [4] 0 | pinometostat 0.027 | [5] 0 | [6] 0.019 | [7] 0.057 | [8] -0.039 | [9] 0.023 | [10] -0.002 | Nexturastat A 0 | vemurafenib 0.009 | [11] 0.023 | [12] 0.013 | givinostat 0.065 | barasertib 0.108

CAPN2 (UniProt P17655)
inactive: IRAK-1-4 Inhibitor I 0.055 | ibrutinib 0.042 | [1] 0.019 | ralimetinib -0.017 | [2] 0 | [3] 0.017 | [4] -0.067 | pinometostat -0.003 | [5] 0.003 | [6] 0.001 | [7] -0.029 | [8] -0.002 | [9] -0.05 | [10] 0.014 | Nexturastat A -0.02 | vemurafenib -0.022 | [11] -0.032 | [12] -0.032 | givinostat -0.026 | barasertib -0.004

C3 (UniProt P01024)
inactive: IRAK-1-4 Inhibitor I 0.03 | ibrutinib 0.219 | [1] 0.087 | ralimetinib -0.008 | [2] 0.274 | [3] 0.148 | [4] -0.002 | pinometostat -0.075 | [5] 0.024 | [6] -0.176 | [7] -0.057 | [8] 0.347 | [9] 0.043 | [10] 0.121 | Nexturastat A -0.092 | vemurafenib 0.087 | [11] -0.13 | [12] -0.143 | givinostat -0.1 | barasertib -0.007

CALR (UniProt P27797)
inactive: IRAK-1-4 Inhibitor I 0.016 | ibrutinib -0.007 | [1] 0.019 | ralimetinib -0.003 | [2] -0.002 | [3] -0.02 | [4] -0.003 | pinometostat 0.022 | [5] 0.019 | [6] -0.037 | [7] 0.02 | [8] 0.005 | [9] -0.052 | [10] -0.029 | Nexturastat A 0.013 | vemurafenib -0.03 | [11] -0.062 | [12] 0.125 | givinostat -0.028 | barasertib 0.02

C5orf51 (UniProt A6NDU8)
inactive: IRAK-1-4 Inhibitor I 0.063 | ibrutinib -0.026 | [1] 0.077 | ralimetinib 0.057 | [2] -0.079 | [3] -0.073 | [4] 0.028 | pinometostat 0.085 | [5] 0.124 | [6] -0.006 | [7] -0.047 | [8] -0.101 | [9] 0.007 | [10] -0.033 | Nexturastat A -0.042 | vemurafenib -0.031 | [11] -0.075 | [12] 0.032 | givinostat 0.017 | barasertib 0.102

C1orf122 (UniProt Q6ZSJ8)
inactive: IRAK-1-4 Inhibitor I 0.023 | ibrutinib 0.047 | [1] 0.016 | ralimetinib 0.063 | [2] -0.07 | [3] 0.051 | [4] -0.103 | pinometostat -0.039 | [5] 0 | [6] 0.077 | [7] 0.035 | [8] -0.162 | [9] -0.053 | [10] -0.021 | Nexturastat A 0.057 | vemurafenib 0.004 | [11] -0.06 | [12] -0.05 | givinostat 0.089 | barasertib 0.023

C3orf33 (UniProt Q6P1S2)
inactive: IRAK-1-4 Inhibitor I 0.039 | ibrutinib 0.034 | [1] 0.04 | ralimetinib 0.012 | [2] 0.023 | [3] -0.22 | [4] 0.022 | pinometostat 0.044 | [5] -0.092 | [6] 0.035 | [7] 0.045 | [8] -0.045 | [9] -0.036 | [10] 0.089 | Nexturastat A 0.081 | vemurafenib -0.038 | [11] 0.038 | [12] -0.114 | givinostat 0.122 | barasertib -0.074
